Test results reported in paper PMC9834408, “The SPOC domain is a phosphoserine binding module that bridges transcription machinery with co- and post-transcriptional regulators” (Nature Communications, 2023).
No constants are given. Whether binding was seen depends on the method and setting. In cells and extracts the contact can be indirect. For some of these results: A result given as binding can be weak or reduced; the word gives no strength. For some of these results: Where a sequence is shown, tags or fusion partners need not be part of it.

Protein sequences, listed by entry. Tags and fused reporters are not part of them.
UniProt Q9H5H4: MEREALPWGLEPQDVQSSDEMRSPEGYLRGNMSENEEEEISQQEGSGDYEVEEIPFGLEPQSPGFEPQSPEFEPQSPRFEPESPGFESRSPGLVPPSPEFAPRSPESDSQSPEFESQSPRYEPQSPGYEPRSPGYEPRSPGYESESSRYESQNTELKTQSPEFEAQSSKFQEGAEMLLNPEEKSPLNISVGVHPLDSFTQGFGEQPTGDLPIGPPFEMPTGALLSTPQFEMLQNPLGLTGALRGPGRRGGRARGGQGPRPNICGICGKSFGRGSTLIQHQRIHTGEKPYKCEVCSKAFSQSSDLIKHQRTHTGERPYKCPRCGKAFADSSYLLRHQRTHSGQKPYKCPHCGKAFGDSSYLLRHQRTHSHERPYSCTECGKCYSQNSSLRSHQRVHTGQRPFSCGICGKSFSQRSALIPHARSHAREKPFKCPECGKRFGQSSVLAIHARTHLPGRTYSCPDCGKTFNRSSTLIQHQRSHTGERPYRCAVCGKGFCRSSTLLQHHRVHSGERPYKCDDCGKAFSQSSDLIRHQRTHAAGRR

How the values were obtained:
Test in all cases: co-IP; anti-FLAG M2 beads; 3×FLAG-tagged SPOC domains, full-length or ΔSPOC proteins expressed in HEK293T; lysis in 50 mM Tris-Cl pH 8, 150 mM NaCl, 0.1% Triton with benzonase; elution with 3×FLAG peptide; western blot; performed once
[1] = target: 3×FLAG-NLS-RBM15-SPOC (human) (UniProt Q96T37)
[2] = target: 3×FLAG-RBM15 (human) (UniProt Q96T37)
[3] = target: 3×FLAG-DIDO3 ∆SPOC (human) (UniProt Q9BTC0)
[4] = target: 3×FLAG-PHF3 ∆SPOC (human) (UniProt Q92576)

Q: Which results are given for “CK2 (casein kinase 2) (human (endogenous in HEK293T)) (enzyme)”?
A: binding [1]: binds; binding [2]: no binding

Q: With ZNF768 (from UniProt Q9H5H4 1-540) as the substance, how does the binding [3] read?
A: binds

Q: What about the binding [4] of the same substance?
A: binds
